For part of these data: At least one result comes from cells or an extract, where the contact may be indirect. Where a protein sequence is shown, tags need not be part of it.
Assays:
[1] = target: T1, FPR2 (formyl peptide receptor 2) (Homo sapiens) (UniProt P25090); assay: binding assay; conditions: cell binding by qPCR Ct, HaCaT-FPR2-GFP, 20 pmol, 30 min 37 C; among the highest-affinity aptamers; colocalizes with FPR2-GFP; protein on the cell surface; label: AlexaFluor 700 (colocalization assay only); single-stranded DNA
T1 sequence: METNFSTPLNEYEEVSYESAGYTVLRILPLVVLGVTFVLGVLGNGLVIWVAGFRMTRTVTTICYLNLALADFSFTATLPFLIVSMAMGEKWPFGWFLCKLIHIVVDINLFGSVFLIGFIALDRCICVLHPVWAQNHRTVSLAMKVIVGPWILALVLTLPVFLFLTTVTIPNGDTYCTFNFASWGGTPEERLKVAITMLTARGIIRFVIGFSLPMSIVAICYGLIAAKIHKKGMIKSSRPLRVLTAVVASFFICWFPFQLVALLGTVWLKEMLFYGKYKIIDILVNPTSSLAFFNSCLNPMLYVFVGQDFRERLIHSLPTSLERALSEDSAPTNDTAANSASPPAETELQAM

[2] = target: T1, FPR2 (formyl peptide receptor 2) (Homo sapiens); assay: activity in cells; conditions: agonist; inhibition of forskolin-mediated cAMP production (CRE-luciferase), 1 uM aptamer, 293 FPR2-GFP cells; LL37 5 uM gives 46%; protein on the cell surface; single-stranded DNA

Row | Sequence | binding result [1] | functional effect of the aptamer [2]
1 | GCGGATGAAGACTGGTGTGGGCGGGGGTCTTAGGCTGTACGGGGCTGTTCAGGTGCTTGCCCTAAATACGAGCAAC [ApFP3.5a] | binds | active
2 | GCGGATGAAGACTGGTGTGGGGATCAGGAACTCTGAAATGGCAGTCTATGTTTCAATGGCCCTAAATACGAGCAAC [ApFP3.8a] | binds | active
3 | GCGGATGAAGACTGGTGTTGTGGCGCTTCGGGCCTGTCCCTTTATATCCGTAGATTGAGCCCTAAATACGAGCAAC [ApFP4.5b] | binds | active

From patent publication US20220372484A1
